Laboratory results taken from publication PMC6058520, “Modification of translationally controlled tumor protein-derived protein transduction domain for improved intranasal delivery of insulin” (Drug Delivery, 2018).
Results are given in words; binding and its absence hold for the method and conditions named. A result given as binding can be weak or reduced; the word gives no strength.

Target: Human recombinant insulin (human)
Assay: turbidity (absorbance at 500 nm); 50 µL 0.2 mM insulin mixed with an equal volume of 0.2 or 0.5 mM PTD, 10 mM phosphate buffer pH 6.4, 96-well plate; both purified

MIIFRLLASHKK (amino acids in the D-form; acetylated at the N-terminus; C-terminus amidated) [D-TCTP-PTD 13M2]
binding: binds

MIIFRALISHKK (amino acids in the D-form; acetylated at the N-terminus; C-terminus amidated) [D-TCTP-PTD 13]
binding: binds
